Laboratory results published in patent US20220119534A1.
No constants are given. Whether binding was seen depends on the method and setting. Some results given as binding are weak or reduced against the parent protein; the word gives no strength. One block for each binder: values may come before it.

Protein sequences, listed by entry. Tags and fused reporters are not part of them. Lines headed by an entry give the natural chain unless they say otherwise; changes in a name come on top.
UniProt Q5QGZ9: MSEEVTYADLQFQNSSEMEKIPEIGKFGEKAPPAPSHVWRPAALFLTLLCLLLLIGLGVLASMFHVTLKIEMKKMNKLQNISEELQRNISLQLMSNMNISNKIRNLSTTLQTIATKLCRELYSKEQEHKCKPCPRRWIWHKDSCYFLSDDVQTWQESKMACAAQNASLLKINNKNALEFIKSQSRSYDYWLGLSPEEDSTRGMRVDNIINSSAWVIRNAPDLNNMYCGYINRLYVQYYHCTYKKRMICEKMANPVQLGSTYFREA

Tests used:
[1] = biological target: human CLEC12A expressed on cells (human) (UniProt Q5QGZ9); assay: flow cytometry
[2] = biological target: recombinant cynomolgus CLEC12A-His (cynomolgus monkey); assay: SPR, purified murine subclone mAb and Cyno CLEC12A-His
[3] = biological target: recombinant cynomolgus CLEC12A-His (cynomolgus monkey); assay: SPR
[4] = biological target: human CLEC12A expressed on cells (human) (UniProt Q5QGZ9); assay: flow cytometry on HL-60 cells, fold over background
[5] = biological target: human CLEC12A expressed on cells (human) (UniProt Q5QGZ9); assay: flow cytometry on Ba/F3-hCLEC12A cells, fold over background
[6] = biological target: human CLEC12A expressed on cells (human) (UniProt Q5QGZ9); assay: flow cytometry on PL-21 cells, fold over background
[7] = biological target: human CLEC12A expressed on cells (human) (UniProt Q5QGZ9); assay: flow cytometry, Ba/F3-hCLEC12A, HL60, PL21

binding [1]: binds
B1: hcFAE-A49.h6E7 (bispecific antibody, V domains shown)
VH 1: EVQLVQSGAEVKKPGASVKVSCKASGYSFTDYYMHWVRQAPGQGLEWIGRINPYNGAAFYSQNFKDRVTLTVDTSTSTAYLELSSLRSEDTAVYYCAIERGADLEGYAMDYWGQGTLVTVSS
VL 1: DIQMTQSPSSLSASVGDRVTITCRASQSVSTSSYNYMHWYQQKPGKPPKLLIKYASNLESGVPSRFSGSGSGTDFTLTISSLQPEDFATYYCQHSWEIPLTFGQGTKVEIK
VH 2: EVQLVESGGGLVKPGGSLRLSCAASGFTFSSYSMNWVRQAPGKGLEWVSSISSSSSYIYYADSVKGRFTISRDNAKNSLYLQMNSLRAEDTAVYYCARGAPMGAAAGWFDPWGQGTLVTVSS
VL 2: DIQMTQSPSSVSASVGDRVTITCRASQGISSWLAWYQQKPGKAPKLLIYAASSLQSGVPSRFSGSGSGTDFTLTISSLQPEDFATYYCQQGVSFPRTFGGGTKVEIK

binding [2]: binds
binding [3]: binds
B2: 15A10.G8 (antibody, V domains shown)
VH: EVQLQESGAELVRSGASIKLSCAASAFNIKDYFIHWVRQRPDQGLEWIGWIDPENDDTEYAPKFQDKATMTADTSSNTAYLQLSSLTSADTAVYYCNALWSRGGYFDYWGQGTTLTVSS
VL: EVLLTQSPAIIAASPGEKVTITCSARSSVSYMSWYQQKPGSSPKIWIYGISKLASGVPARFSGSGSGTYFSFTINNLEAEDVATYYCQQRSYYPFTFGSGTKLEIK

binding [4]: binds
binding [5]: binds
binding [6]: binds
binding [7]: binds
B3: AB0306 (antibody, IgG1, V domains shown)
VH: EVQLVESGGGVVQPGGSLRLSCAASGFTFNAFGMHWVRQAPGKGLEWVAFISSGSTSIYYANTVKGRFTISRDNSKNTLYLQMNSLRAEDTAVYYCARDGYPTGGAMDYWGQGTSVTVSS
VL: DIQMTQSPSSLSASVGDRVTITCKASQDIYNYLSWFQQKPGKAPKPLIYRANILVSGVPSRFSGSGSGQDYTFTISSLQPEDIATYYCLQFDAFPFTFGSGTKLEIK
